Consider 116 substances from the supplement of paper PMC5949888.

Most values lie at the floor of the assay. Slopes are relative: functional sequences can read slightly below zero. Bounds are passed on as bounds.

For this data set, the system named is Saccharomyces cerevisiae PS128 hsf1 delta, HSF1(1-493) fusion. In words: growth estimate (transactivation domain function in HSF1 fusion, heat-shock survival) (a.u. (slope of normalised read count over time)); higher = stronger growth at 37°C, i.e. more transactivation activity. The conditions noted are these: library: random library. How it is done:
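Random 60-nt DNA library encoding peptides of up to 20 aa, fused to the C-terminus of yeast HSF1 residues 1-493 (C-terminal TAD deleted) and expressed from the native HSF1 promoter on a CEN plasmid in hsf1-deleted S. cerevisiae PS128. Cells were selected at 37°C on -trp 5-FOA plates for 0, 2, 4, 6 and 8 days and amplicons were sequenced. Growth estimate is the slope of a robust linear fit of total-sum-normalised read counts (normalised to the first time point) over time, using at least 2 replicates. Sequences are classed functional (TAD activity) above a threshold of -0.13, set from stop-codon control sequences.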
Consider SHWFHISAN, for which the growth estimate was less than -0.25. As for RWGSPAGRVTTPDSNDALTQ, the figure is less than -0.25; as for CEKTGPGIQIHVVVMKCCDG, less than -0.25; as for RYVGTRKSS, less than -0.25. As for VQCWIARVLNTRFTVLIARV, the figure is less than -0.25; as for DTGMLCSSPKYRTAHCSGP, less than -0.25.

In the case of LCWYRKST, the growth estimate is less than -0.25.

For YRINSAVRSRKAQMVPPV, the growth estimate is less than -0.25. The figure for MVPDPTL is less than -0.25; for ACVPVELLVAICNSALGARD it is less than -0.25. As for KGV, the figure is less than -0.25; as for GQKAGQPQPKALVAGASSAR, less than -0.25. For MSRF, the growth estimate is less than -0.25.

Turning to SGNPSKQRRRCTPN, the growth estimate was less than -0.25. For CVDINVTVSTPICWFLWLDA, the growth estimate was less than -0.25.

As for RTECWTGASLQVANCHIRQP, the growth estimate was less than -0.25. For the substance SSKAPYCEVRDHRHRVWIRP, the growth estimate was less than -0.25. As for WKRSTAPPAKARKKPGYRPH, the figure is less than -0.25; as for EGELGNPLNGIGMMMPVHDT, less than -0.25; as for RRCSSLRTWSGVSRD, less than -0.25. As for GSLFARIVRASKWA, the figure is less than -0.25; as for PCFSTMNRNAINLSAACGLI, less than -0.25; as for EEGTYSCGVSLRVG, less than -0.25. Consider NSQDLVVARYGCLGASL, for which the growth estimate is less than -0.25.

In the case of PTNVEKYCIGPVA, the growth estimate was less than -0.25. As to CKLRIVFRRTDRPTGVTYHG, the growth estimate is less than -0.25. As for ILAQDYLEMH, the figure is less than -0.25.

For TGSSWTNISFRRAQIPQATT, the growth estimate is less than -0.25.

For TSRHYACYTVSG, the growth estimate is less than -0.25. Consider QLCQITVSIAVISPFSKDFA, for which the growth estimate was less than -0.25.

RNGNKVTGRPSP: the growth estimate is less than -0.25. For the substance GLQRNSSA, the growth estimate was less than -0.25.

As to NSQTCT, the growth estimate is -0.198. As to CIRPNFSGAP, the growth estimate was less than -0.25. As for LNWDGSMRTSWCRTHRTVAK, the figure is less than -0.25. With KITNMFVTDTYSHLYG, the growth estimate was less than -0.25. In the case of CSSCILASLRERFVTYQ, the growth estimate is less than -0.25. As to CYLHLRPVSGPSDAPRACGG, the growth estimate was less than -0.25. As for AVN, the figure is less than -0.25; as for DTDTRLIRSTEGDL, -0.246. SVLAVEADFSNRKARNILRR: the growth estimate was less than -0.25.

As for LRGDG, the growth estimate is less than -0.25. The figure for GLARSWKCILMLLGRRRQA is less than -0.25; for RTLPLRFPGAQPLYQ it is less than -0.25; for KEARA it is less than -0.25. For YLLGIRFCGQ, the growth estimate is less than -0.25. Consider TFDPQVPIRQRD, for which the growth estimate was less than -0.25. RVVEQHERT: the growth estimate is less than -0.25. The figure for GAQVEGEIASGAYS is less than -0.25; for GVPDTEFGSSSAEEDRMIIG it is less than -0.25; for LHRCR it is less than -0.25.

For RRSRVNAPERIRLV, the growth estimate was less than -0.25. As for RHVSTMVVKFRYTRRSRSDV, the figure is less than -0.25; as for TISPICRRASSSRCEQFLPL, less than -0.25; as for VVDLFTRSLQTVGRVPGLSG, less than -0.25.

Consider NPVTK, for which the growth estimate was less than -0.25. The figure for EVKLLHASSSLAVLANGSSR is less than -0.25; for RRSACLPLFTRPVTRFGDL it is less than -0.25; for LGPLRGESTRE it is less than -0.25. For the substance LNLGPWKA, the growth estimate is less than -0.25. As for AIGRLAPP, the figure is less than -0.25; as for QPVCLRSIMVHEPVGFESTN, less than -0.25; as for RISMGDSMELTIGVLLAKGI, less than -0.25. With IWFRREYRMGSMDRIETSQH, the growth estimate was -0.246. For LLRPKGVQLYLSMHGGDVKV, the growth estimate was less than -0.25. As for RKLVDLVVQIASPIGSVPDR, the growth estimate is less than -0.25. For KNRLTG, the growth estimate is less than -0.25. Regarding YPPAEEE, the growth estimate was less than -0.25. Consider VPDKSSAS, for which the growth estimate was less than -0.25. As for VALHCLVGPVCT, the growth estimate was less than -0.25. The figure for WSATLIV is less than -0.25. The figure for EGQVWYWRAYHGNMTTN is less than -0.25.

For the substance ERH, the growth estimate is less than -0.25. The figure for DRVQN is less than -0.25.

As for ASLLLPTAQ, the growth estimate was less than -0.25.

Turning to VSVTRIIVEYGTGHSAKGTG, the growth estimate is less than -0.25. On to NLWVVLECIVRCVPSWGSLS, for which the growth estimate is less than -0.25. For IWVPSDLAVLRPASWLPSRC, the growth estimate was less than -0.25. As for ISD, the figure is less than -0.25.

Take RGAARAQAGRGMITYAWHVA: the growth estimate was less than -0.25.

Turning to SSGGGKHAGRDASEVS, the growth estimate was less than -0.25. Consider TRY, for which the growth estimate is less than -0.25. Take VVISANVCPWGSCEHARVPS: the growth estimate is less than -0.25. As to AVGST, the growth estimate was less than -0.25. AFDKSHSSIGTPLRAHRRFM: the growth estimate was less than -0.25. As for YAETNE, the figure is less than -0.25; as for PLELSL, less than -0.25.

Consider FVKSRNERASSFHLTDRACN, for which the growth estimate was less than -0.25.

Turning to YVKQTLGISCLCGNWVLLKE, the growth estimate is less than -0.25. For the substance AFSPKTCQAGERRM, the growth estimate is less than -0.25. The figure for GGLMSSGLTTRYSEVMMRAT is less than -0.25; for CKL it is less than -0.25. The figure for ESNEVFQQRCYRWELLVLTI is less than -0.25; for LGNTKQSVLGHASHGCYWHN it is less than -0.25. For VVFVPERTVATFEG, the growth estimate was less than -0.25. Consider NNSWQTVILNERSHRFVGIQ, for which the growth estimate is less than -0.25. RPGRCAATTTNILWWAKSTV: the growth estimate was less than -0.25. For EFLERPGNGWRTHGCLLGLG, the growth estimate was less than -0.25. The figure for GFRTQPIG is less than -0.25. Consider CIGVHGIYCLINPGPGVTRM, for which the growth estimate is less than -0.25. The figure for LRSRGSSFTVS is less than -0.25. As for LLHPSFV, the figure is less than -0.25; as for PKISYVRGGLRQHDAEHLLR, less than -0.25; as for FLLLCPSLR, less than -0.25. Take SRRSSQFAI: the growth estimate is less than -0.25.

For RLGRAPNRPVRIIRF, the growth estimate is less than -0.25.

Turning to VQRVRATKGTMNDSALGKLW, the growth estimate is less than -0.25. As for RYPA, the figure is less than -0.25. Turning to RVLVLVCLQAGLMKPKASWT, the growth estimate was less than -0.25. As for LLFDKRRLSMVLVPTP, the figure is less than -0.25. For the substance LRSM, the growth estimate was less than -0.25. Turning to RLNRTRAL, the growth estimate was less than -0.25.

On to LGTLQLTPSTSPCLSCDKMS, for which the growth estimate is less than -0.25. The figure for MESLASPEGYMRR is less than -0.25; for YPPSLGTWRIGCPLLPNLTS it is less than -0.25. The figure for PRVKGNGSMCRMTEM is less than -0.25.
